Results: publication PMC7957162
Results are given in words; binding and its absence hold for the method and conditions named. Some entries that bind do so weakly or less than the wild type. Values belong to the molecule of their own block, whether it stands above or below them.

Amino acid sequences for entries named in this document (tags omitted).
UniProt P63158: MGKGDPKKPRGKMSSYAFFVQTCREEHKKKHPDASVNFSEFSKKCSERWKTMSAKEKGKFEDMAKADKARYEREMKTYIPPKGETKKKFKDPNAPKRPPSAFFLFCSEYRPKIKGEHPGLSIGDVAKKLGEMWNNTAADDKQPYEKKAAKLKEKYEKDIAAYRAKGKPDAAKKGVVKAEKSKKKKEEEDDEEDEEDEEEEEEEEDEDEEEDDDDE

Columns and labels:
Assay in all cases: two-hybrid; mammalian two-hybrid in 293T cells (P-act / P-bind vectors, Lipofectamine 3000); firefly luciferase with Renilla as internal reference; cells untreated, with TNF-α, or with TNF-α and paeonol (PL, PM, PH)
NF-κB P65 = NF-κB P65 (UniProt Q04207)
P50 = P50 (UniProt P25799)
NF-κB P65, Q04207 = target: T1, NF-κB P65, Q04207; conditions: remark: other sources report otherwise
T1 chain: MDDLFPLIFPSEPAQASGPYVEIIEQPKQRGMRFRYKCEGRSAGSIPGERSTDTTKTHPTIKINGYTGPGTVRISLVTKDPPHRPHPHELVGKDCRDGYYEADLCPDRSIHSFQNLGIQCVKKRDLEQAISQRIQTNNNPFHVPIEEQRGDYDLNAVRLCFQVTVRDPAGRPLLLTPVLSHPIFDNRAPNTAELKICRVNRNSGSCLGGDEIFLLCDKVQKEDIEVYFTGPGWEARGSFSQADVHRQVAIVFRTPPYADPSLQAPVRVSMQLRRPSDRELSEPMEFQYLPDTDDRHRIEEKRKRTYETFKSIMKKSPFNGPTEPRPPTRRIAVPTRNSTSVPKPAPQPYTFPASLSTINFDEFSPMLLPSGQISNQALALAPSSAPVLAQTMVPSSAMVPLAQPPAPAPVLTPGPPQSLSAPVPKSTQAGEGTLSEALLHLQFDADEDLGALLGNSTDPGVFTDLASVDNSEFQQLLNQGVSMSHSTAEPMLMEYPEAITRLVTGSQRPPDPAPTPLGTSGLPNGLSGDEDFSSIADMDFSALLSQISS

- binding (NF-κB P65): binds
- binding (P50): binds
Molecule: High-mobility group box 1 (HMGB1) (from UniProt P63158 1-215)

- binding (NF-κB P65, Q04207): binds
B1: P50, P25799 1-431 (protein)
chain: MADDDPYGTGQMFHLNTALTHSIFNAELYSPEIPLSTDGPYLQILEQPKQRGFRFRYVCEGPSHGGLPGASSEKNKKSYPQVKICNYVGPAKVIVQLVTNGKNIHLHAHSLVGKHCEDGVCTVTAGPKDMVVGFANLGILHVTKKKVFETLEARMTEACIRGYNPGLLVHSDLAYLQAEGGGDRQLTDREKEIIRQAAVQQTKEMDLSVVRLMFTAFLPDSTGSFTRRLEPVVSDAIYDSKAPNASNLKIVRMDRTAGCVTGGEEIYLLCDKVQKDDIQIRFYEEEENGGVWEGFGDFSPTDVHRQFAIVFKTPKYKDVNITKPASVFVQLRRKSDLETSEPKPFLYYPEIKDKEEVQRKRQKLMPNFSDSFGGGSGAGAGGGGMFGSGGGGGSTGSPGPGYGYSNYGFPPYGGITFHPGVTKSNAGVTHG
